Assay results taken from article PMC4637324.
No constants are given. Whether binding was seen depends on the method and setting. In cells and extracts the contact can be indirect. Some entries that bind do so weakly or less than the wild type.

Sequences of proteins named here, by UniProt entry; tags and fusion partners are left off.
UniProt O00401: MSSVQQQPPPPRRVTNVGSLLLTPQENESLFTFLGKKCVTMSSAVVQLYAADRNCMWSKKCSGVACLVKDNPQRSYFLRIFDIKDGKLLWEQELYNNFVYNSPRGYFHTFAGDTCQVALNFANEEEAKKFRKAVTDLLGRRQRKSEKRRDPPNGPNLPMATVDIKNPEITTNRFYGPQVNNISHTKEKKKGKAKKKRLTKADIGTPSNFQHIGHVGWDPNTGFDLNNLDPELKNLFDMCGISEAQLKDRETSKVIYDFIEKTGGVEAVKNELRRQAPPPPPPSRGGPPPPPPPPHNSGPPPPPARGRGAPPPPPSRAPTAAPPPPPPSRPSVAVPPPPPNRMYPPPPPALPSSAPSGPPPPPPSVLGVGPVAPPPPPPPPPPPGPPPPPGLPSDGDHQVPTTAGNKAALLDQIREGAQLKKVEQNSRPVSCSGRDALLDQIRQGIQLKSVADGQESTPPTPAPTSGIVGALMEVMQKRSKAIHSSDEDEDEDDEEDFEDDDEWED

Assays:
[1] = target: T1, RTVP-1, endogenous in glioma cells (human (endogenous in U87 and HF2609 GSCs)) (UniProt P48060); experiment: co-IP; reciprocal co-immunoprecipitation of endogenous proteins from U87 glioma cells and GSCs (HF2609)
T1 sequence: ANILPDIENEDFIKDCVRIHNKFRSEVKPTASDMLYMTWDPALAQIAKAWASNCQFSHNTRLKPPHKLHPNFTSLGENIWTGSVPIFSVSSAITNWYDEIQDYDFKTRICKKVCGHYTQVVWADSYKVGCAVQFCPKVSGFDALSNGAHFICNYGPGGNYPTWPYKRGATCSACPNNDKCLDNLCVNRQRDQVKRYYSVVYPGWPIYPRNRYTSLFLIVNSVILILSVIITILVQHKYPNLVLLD

[2] = target: heterogeneous nuclear ribonucleoprotein K (hnRNPK), endogenous in glioma cells (human (endogenous in U87 and GSCs)) (UniProt P61978); experiment: co-IP; lysates of U87 cells (CV cells and RTVP-1-overexpressing cells), immunoprecipitation with anti-hnRNPK antibody, blots with anti-N-WASP, anti-hnRNPK and anti-RTVP-1

Row | binding [1] | binding [2] | Substance
1 | binds | binds | N-WASP (neural WASP), endogenous in glioma cells (from UniProt O00401 1-505)
2 | binds | – | heterogeneous nuclear ribonucleoprotein K (hnRNPK), endogenous in glioma cells (from UniProt P61978 1-463)
